The source of these data is paper PMC3968176.

Sequences of proteins named here, by UniProt entry; tags and fusion partners are left off.
UniProt Q05037: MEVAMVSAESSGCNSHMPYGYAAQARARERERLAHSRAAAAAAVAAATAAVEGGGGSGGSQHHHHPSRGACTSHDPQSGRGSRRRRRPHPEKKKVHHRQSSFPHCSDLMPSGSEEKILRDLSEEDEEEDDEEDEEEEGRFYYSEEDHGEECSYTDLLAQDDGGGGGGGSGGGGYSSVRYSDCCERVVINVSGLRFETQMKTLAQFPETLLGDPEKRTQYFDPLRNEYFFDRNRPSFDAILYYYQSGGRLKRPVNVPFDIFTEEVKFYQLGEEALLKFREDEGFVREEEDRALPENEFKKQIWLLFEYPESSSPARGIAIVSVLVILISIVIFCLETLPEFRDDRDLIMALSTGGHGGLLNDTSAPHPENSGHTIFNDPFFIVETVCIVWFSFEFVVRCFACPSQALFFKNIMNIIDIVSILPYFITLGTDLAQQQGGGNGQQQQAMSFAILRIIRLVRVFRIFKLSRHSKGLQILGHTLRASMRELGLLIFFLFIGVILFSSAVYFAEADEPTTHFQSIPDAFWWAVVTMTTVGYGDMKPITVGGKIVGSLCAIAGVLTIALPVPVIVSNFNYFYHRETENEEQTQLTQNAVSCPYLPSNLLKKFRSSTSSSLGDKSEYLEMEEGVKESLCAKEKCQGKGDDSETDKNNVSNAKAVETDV

This test concerns the target bovine Kv1.4 (bovine) (UniProt Q05037). As to the kind of experiment: cross-linking; disulfide linkage between subunits in oocytes expressing bKv1.4, untreated or incubated with 1 mM tBHP or 1 mM diamide for 15 min; extracts separated by SDS-PAGE under non-reducing or reducing (100 mM DTT) conditions, Western blot with anti-Kv1.4. On the technique in general: In western blotting, separated proteins are transferred to a membrane and probed.

Results are given in words; binding and its absence hold for the method and conditions named. In cells and extracts the contact can be indirect. Some binding calls cover weakened binding; strength is not graded here.

For the substance “bovine Kv1.4 (from UniProt Q05037 1-660)”, the binding result was “binds”.
